Reference: patent US20240238459A1, “Granzyme-Activatable Membrane-Interacting Peptides and Methods of Use” (priority 2021, published 2024)
For some of these results: At least one peptide structure holds a part that was inferred or is arguable (an end, a ring closure or a residue). For some of these results: The name of at least one read-out is uncertain. Ends that are not written are not given here.

Protein sequences, listed by entry. Tags and fused reporters are not part of them. Residues count along the entry.
UniProt P10144, 21-247: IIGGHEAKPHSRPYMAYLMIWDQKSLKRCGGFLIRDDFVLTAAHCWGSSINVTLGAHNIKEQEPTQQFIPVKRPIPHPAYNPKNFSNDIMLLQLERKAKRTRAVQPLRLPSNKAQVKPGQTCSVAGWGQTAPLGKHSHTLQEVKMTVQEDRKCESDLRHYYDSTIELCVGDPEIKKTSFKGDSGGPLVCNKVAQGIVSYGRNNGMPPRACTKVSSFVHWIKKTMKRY

What was measured:
MC38 cells = test: Flow cytometry cell labeling with 5FAM-GRIP B; format: cell-based, mouse
recombinant human GZMB = recombinant human GZMB (Homo sapiens, UniProt P10144); test: Cleavage of GRIP B / ^64Cu-GRIP B by recombinant human GZMB (rad-HPLC); format: biochemical
granzyme B = granzyme B (Homo sapiens, UniProt P10144); test: In vitro kinetics of quenched fluorogenic peptide proteolysis by GZMB; format: biochemical; conditions: fluorescent quenched peptide substrate; GZMB 40 nM in PBS, 37° C.

Sequence | cell membrane labeling, with GZMB (MC38 cells; N-terminal 5FAM-tagged GRIP B co-incubated with cells and 20 nM recombinant GZMB) | interaction with cell membranes, without GZMB (MC38 cells; N-terminal 5FAM-tagged GRIP B, intact, vehicle) | cleavage of full length peptide by recombinant human GZMB (recombinant human GZMB) | kcat/Km (granzyme B) [M⁻¹ s⁻¹]
FVQWFSKFLGKIEPDVSQVQDPNDQYEPF [GRIP B] | fluorescently labeled cell membranes | low interaction with cell membranes | efficiently cleaved | –
IEPDVSQV [NH2-K(MCA)IEPDVSQVK(DNP)-COOH] | – | – | – | ~8000
